The other results are listed elsewhere or left out. This data set is noisy: repeats of one test often differ as much as different tests do.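 HEK293T cells were given each compound shortly before transfection with a reporter in which red mCherry is followed by the SARS-CoV-2 frameshift element and then GFP in the −1 frame, so GFP appears only after frameshifting.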

The test system of this assay is HEK293T. Description: percent viability (nuclei count) relative to control; higher = more viable cells. The conditions noted are these: 10 µM; 24 h.
Consider `CC1(NC2=NS(=O)(=O)c3sc(Cl)cc3N2)CC1`, for which the percent viability is 155%. On to `CCC(=O)O[C@@H](O[P@](=O)(CCCCc1ccccc1)CC(=O)N1C[C@H](C2CCCCC2)C[C@H]1C(=O)O)C(C)C` [Fosinopril], for which the percent viability stood at 372%. For `COc1cc(C(=O)N2CCOCC2)cc(OC)c1OC` [trimetozine], the percent viability turned out to be 246%. Regarding `Cn1c(=O)c2nc[nH]c2n(C)c1=O`, the percent viability came out at 226%. On to `C/C(=C\C(=O)O)C1CCCCC1` [cicrotoic acid], for which the percent viability stood at 245%.

(Values after the supplement of paper PMC8256030.)
